Reference: paper PMC3773341 (Biology Open, 2013)
These are yes or no findings as the source states them, for the method shown. In cells and extracts the contact can be indirect. Some entries that bind do so weakly or less than the wild type.

The chains behind the UniProt entries cited, without tags or fusion partners.
UniProt O95180: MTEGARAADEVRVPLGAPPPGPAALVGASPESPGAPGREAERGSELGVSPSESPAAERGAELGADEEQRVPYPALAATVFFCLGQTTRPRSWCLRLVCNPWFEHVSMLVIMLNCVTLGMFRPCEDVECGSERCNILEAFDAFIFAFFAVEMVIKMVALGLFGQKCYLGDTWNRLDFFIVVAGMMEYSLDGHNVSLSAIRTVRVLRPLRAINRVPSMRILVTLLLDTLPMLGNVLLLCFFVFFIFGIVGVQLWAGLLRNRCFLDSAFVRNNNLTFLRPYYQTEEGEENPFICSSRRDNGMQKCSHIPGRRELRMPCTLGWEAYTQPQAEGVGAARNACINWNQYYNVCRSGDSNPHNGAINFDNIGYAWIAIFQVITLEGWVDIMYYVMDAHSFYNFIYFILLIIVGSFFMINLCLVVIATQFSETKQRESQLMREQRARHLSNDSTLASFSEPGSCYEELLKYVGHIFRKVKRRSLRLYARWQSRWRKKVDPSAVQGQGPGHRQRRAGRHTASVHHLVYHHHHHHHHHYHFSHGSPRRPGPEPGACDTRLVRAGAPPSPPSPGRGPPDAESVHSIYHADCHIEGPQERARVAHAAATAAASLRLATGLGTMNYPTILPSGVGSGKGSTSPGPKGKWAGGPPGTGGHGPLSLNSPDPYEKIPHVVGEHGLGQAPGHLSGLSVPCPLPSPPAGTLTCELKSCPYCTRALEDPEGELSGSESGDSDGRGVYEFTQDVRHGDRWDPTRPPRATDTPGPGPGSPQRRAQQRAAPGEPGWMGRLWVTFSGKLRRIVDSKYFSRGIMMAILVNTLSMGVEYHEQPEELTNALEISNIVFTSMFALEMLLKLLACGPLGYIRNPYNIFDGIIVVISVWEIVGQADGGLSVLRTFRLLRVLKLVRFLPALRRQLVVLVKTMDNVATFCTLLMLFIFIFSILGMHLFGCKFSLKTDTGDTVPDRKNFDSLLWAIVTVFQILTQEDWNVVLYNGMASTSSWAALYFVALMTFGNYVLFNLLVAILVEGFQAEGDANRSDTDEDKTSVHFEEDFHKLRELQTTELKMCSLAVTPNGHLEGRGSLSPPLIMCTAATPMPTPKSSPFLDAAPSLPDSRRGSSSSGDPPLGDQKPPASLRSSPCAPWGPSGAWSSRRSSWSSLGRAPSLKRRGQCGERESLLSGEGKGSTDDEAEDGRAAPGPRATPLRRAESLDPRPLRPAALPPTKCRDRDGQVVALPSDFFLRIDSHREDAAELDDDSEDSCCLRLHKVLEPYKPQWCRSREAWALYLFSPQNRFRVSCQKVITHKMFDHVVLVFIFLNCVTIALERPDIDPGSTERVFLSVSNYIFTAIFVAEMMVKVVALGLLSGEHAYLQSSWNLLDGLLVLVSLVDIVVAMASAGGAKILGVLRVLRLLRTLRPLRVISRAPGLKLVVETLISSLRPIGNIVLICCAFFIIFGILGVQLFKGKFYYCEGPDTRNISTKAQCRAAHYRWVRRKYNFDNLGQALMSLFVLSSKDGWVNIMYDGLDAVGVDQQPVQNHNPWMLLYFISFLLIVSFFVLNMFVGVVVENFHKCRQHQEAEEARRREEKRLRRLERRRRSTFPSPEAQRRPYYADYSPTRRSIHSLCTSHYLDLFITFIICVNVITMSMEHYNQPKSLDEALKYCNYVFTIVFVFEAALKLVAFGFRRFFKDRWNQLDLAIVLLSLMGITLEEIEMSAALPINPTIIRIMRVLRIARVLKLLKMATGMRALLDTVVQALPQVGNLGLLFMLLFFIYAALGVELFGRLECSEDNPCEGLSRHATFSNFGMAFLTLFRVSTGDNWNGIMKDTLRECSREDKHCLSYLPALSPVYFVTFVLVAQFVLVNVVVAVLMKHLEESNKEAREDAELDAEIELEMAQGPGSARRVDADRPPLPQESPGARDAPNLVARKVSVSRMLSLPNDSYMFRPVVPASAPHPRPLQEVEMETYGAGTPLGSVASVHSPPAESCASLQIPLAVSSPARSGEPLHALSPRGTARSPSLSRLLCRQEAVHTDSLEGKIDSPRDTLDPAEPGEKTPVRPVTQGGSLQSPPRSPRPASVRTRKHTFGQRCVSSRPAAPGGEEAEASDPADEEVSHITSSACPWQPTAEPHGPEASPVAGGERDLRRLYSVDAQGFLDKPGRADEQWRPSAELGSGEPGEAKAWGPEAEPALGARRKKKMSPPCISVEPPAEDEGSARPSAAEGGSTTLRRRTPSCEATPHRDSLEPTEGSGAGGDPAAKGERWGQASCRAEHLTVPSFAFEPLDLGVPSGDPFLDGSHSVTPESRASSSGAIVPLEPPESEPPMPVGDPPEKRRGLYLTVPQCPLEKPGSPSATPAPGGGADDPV
UniProt Q12791: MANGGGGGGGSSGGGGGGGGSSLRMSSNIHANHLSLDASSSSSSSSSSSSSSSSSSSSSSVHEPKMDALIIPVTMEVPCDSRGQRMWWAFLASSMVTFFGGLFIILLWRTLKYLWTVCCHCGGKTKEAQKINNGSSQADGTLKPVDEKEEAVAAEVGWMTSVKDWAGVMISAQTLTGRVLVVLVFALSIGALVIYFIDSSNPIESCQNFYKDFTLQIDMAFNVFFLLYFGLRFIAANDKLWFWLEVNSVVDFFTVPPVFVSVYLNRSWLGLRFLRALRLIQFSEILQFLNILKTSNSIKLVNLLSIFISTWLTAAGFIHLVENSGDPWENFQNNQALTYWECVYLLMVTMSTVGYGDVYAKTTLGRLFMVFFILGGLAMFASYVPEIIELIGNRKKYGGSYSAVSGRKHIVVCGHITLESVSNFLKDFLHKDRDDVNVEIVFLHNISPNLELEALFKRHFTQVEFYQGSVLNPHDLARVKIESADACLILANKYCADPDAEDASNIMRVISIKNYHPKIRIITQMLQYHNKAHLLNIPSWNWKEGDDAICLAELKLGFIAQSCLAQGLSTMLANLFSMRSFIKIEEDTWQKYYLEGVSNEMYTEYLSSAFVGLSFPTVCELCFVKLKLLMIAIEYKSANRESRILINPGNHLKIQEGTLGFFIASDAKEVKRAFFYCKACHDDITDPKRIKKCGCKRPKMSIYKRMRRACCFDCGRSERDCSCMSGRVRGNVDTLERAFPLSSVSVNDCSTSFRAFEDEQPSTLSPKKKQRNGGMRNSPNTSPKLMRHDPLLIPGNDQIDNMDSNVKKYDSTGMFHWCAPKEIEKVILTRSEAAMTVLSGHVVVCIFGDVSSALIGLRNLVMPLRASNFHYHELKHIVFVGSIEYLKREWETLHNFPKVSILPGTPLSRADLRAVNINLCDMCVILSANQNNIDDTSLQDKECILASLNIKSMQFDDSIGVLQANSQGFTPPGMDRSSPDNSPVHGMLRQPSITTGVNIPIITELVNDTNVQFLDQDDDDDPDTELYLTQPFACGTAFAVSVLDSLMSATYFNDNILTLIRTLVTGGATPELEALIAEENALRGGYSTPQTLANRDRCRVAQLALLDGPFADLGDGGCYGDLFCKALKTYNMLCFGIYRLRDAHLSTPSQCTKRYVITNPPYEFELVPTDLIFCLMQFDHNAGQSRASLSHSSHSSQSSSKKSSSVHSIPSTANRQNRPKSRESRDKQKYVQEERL

What was measured:
[1] = molecular target: Cav3.2 T-type voltage-dependent calcium channel (α1H) (human) (UniProt O95180); experiment: co-IP; cell extract (500 µg; lysis buffer Triton X-100 1%, Na deoxycholate 1%, NaCl 150 mM, PO4NaK 10 mM, pH 7.2) incubated overnight at 4°C with protein A/G PLUS agarose beads carrying 1 µg anti-BK or anti-α1H antibody; Western blot with the same antibodies
[2] = molecular target: large-conductance Ca2+- and voltage-dependent BK potassium channel (KCa1.1) (human (endogenous in LNCaP)) (UniProt Q12791); experiment: as above

| Substance | binding [1] | binding [2] |
| --- | --- | --- |
| large-conductance Ca2+- and voltage-dependent BK potassium channel (KCa1.1) (from UniProt Q12791 1-1236) | binds | – |
| Cav3.2 T-type voltage-dependent calcium channel (α1H) (from UniProt O95180 1-2353) | – | binds |
